Results from article PMC12259267, “Disruption of the KLHL37–N-Myc complex restores N-Myc degradation and arrests neuroblastoma growth in mouse models” (The Journal of Clinical Investigation, 2025).
No constants are given. Whether binding was seen depends on the method and setting. Binding seen in cells or lysates may run through a third protein. Some results given as binding are weak or reduced against the parent protein; the word gives no strength.

Chains of the proteins cited; added tags and fusions are not shown.
UniProt P04198: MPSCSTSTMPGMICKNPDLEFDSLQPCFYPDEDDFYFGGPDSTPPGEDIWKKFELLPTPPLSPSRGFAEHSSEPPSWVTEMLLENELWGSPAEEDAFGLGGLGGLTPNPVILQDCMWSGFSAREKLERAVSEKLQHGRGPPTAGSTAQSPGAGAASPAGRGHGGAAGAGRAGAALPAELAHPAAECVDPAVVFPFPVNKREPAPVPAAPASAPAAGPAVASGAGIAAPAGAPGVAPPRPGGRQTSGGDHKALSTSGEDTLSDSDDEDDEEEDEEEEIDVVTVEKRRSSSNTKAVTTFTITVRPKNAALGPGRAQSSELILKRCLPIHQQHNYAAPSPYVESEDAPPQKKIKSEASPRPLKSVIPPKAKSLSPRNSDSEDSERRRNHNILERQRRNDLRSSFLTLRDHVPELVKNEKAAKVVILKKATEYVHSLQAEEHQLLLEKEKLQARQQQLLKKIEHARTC
UniProt Q969H0: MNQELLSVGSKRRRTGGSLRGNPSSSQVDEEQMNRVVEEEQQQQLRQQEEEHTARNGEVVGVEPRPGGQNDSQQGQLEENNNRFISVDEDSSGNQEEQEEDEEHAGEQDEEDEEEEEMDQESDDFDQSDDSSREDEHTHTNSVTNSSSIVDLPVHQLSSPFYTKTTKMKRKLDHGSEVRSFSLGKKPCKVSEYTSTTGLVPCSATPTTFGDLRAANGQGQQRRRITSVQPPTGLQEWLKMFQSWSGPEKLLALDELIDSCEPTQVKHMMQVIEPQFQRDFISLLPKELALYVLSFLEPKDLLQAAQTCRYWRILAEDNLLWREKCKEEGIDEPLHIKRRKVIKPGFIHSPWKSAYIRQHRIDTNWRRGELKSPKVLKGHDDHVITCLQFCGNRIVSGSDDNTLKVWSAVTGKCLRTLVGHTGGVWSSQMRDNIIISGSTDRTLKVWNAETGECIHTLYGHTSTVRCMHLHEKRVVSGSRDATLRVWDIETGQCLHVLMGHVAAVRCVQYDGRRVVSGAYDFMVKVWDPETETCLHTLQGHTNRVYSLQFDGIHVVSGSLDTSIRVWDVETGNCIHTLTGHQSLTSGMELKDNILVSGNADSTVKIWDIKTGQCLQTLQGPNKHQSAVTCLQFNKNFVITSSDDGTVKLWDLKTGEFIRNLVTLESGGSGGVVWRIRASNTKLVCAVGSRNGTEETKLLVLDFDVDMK

Legend:
[1] = target: GST–N-Myc recombinant protein (UniProt P04198); assay: pull-down; in vitro competition: recombinant GST or GST–N-Myc preincubated with KLHL37-His at RT, then with lysate of HEK-293T overexpressing FBXW7-HA at 4°C overnight; IP with GST resin; only the target purified
[2] = target: endogenous N-Myc (human (endogenous in SK-N-BE(2))) (UniProt P04198); assay: co-IP; cells (not named) transfected 48 hours to overexpress KLHL37; interaction of endogenous N-Myc and FBXW7 by co-IP and immunoblotting

| Substance | binding [1] | binding [2] |
| --- | --- | --- |
| FBXW7-HA (from UniProt Q969H0 1-707) | binds |  |
| endogenous FBXW7 (from UniProt Q969H0 1-707) |  | binds |
